From patent publication US20080176963A1, “TREATMENT OF BRAIN DISORDERS OF THE STRIATUM” (priority 2007, published 2008)

Experiments:
[1] = system: indirect-pathway MSN synapses; test: LTD induced by high-frequency afferent stimulation, whole-cell recording in striatal slices of control mice; format: cell-based, mouse; conditions: indirect-pathway MSNs; AM251 1 μM; sulpiride 10 μM; methysergide 4 μM, GR125487 1 μM, LY278584 1 μM, prazosin 2 μM, propranolol 1 μM; without drug 51±5%
[2] = system: indirect-pathway MSN synapses; test: LTD induced by tetanic stimulation in striatal slices from reserpine-treated mice; format: cell-based, mouse

Cc1c(C(=O)NN2CCCCC2)nn(-c2ccc(Cl)cc2Cl)c1-c1ccc(I)cc1 [AM251]
EPSC after LTD induction, % of baseline at 30-40 min [1]: 107±10 % of baseline | EPSC after LTD induction, % of baseline at 30-40 min [2]: 129±7 % of baseline
